According to the supplement of paper PMC8728848:
The other results are listed elsewhere or left out.

Key:
Experiment in all cases: glycan array binding signal (z-score within array); higher = stronger binding
Settings in all cases: glycan notation: IUPAC condensed, linker removed
[1] = biological target: Neu5Ac(a2-3)Gal(b1-4)GlcNAc(b1-3)[Neu5Ac(a2-3)Gal(b1-4)GlcNAc(b1-6)]GalNAc
Procedure, shortened: (§1)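 The binding signal is a Z-score computed within each array and averaged over linkers. Arrays of the same protein sequence at different concentrations or buffers were also averaged together. Data originate from 3228 arrays in the Consortium for Functional Glycomics database, kept only where the protein sequence was available.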

[2] = biological target: Neu5Ac(a2-3)Gal(b1-4)GlcNAc(b1-6)GalNAc
Procedure, shortened: as §1

[3] = biological target: Neu5Ac(a2-3)Gal(b1-4)GlcNAc(b1-6)[Gal(b1-3)]GalNAc
Procedure, shortened: as §1

[4] = biological target: Neu5Ac(a2-3)Gal(b1-4)GlcNAc(b1-6)[Neu5Ac(a2-3)Gal(b1-3)]GalNAc
Procedure, shortened: as §1

[5] = biological target: Neu5Ac(a2-3)Gal(b1-4)GlcNAc6S
Procedure, shortened: as §1

[6] = biological target: Neu5Ac(a2-3)Gal(b1-4)[Fuc(a1-3)]GlcNAc
Procedure, shortened: as §1

[7] = biological target: Neu5Ac(a2-3)Gal(b1-4)[Fuc(a1-3)]GlcNAc(b1-2)Man
Procedure, shortened: as §1

[8] = biological target: Neu5Ac(a2-3)Gal(b1-4)[Fuc(a1-3)]GlcNAc(b1-3)Gal
Procedure, shortened: as §1

[9] = biological target: Neu5Ac(a2-3)Gal(b1-4)[Fuc(a1-3)]GlcNAc(b1-3)Gal(b1-4)GlcNAc
Procedure, shortened: as §1

[10] = biological target: Neu5Ac(a2-3)Gal(b1-4)[Fuc(a1-3)]GlcNAc(b1-3)Gal(b1-4)[Fuc(a1-3)]GlcNAc(b1-3)Gal(b1-4)[Fuc(a1-3)]GlcNAc
Procedure, shortened: as §1

[11] = biological target: Neu5Ac(a2-3)Gal(b1-4)[Fuc(a1-3)]GlcNAc(b1-3)GalNAc
Procedure, shortened: as §1

[12] = biological target: Neu5Ac(a2-3)Gal(b1-4)[Fuc(a1-3)]GlcNAc(b1-6)[Gal(b1-3)]GalNAc
Procedure, shortened: as §1

[13] = biological target: Neu5Ac(a2-3)Gal(b1-4)[Fuc(a1-3)]GlcNAc(b1-6)[Neu5Ac(a2-3)Gal(b1-3)]GalNAc
Procedure, shortened: as §1

[14] = biological target: Neu5Ac(a2-3)Gal(b1-4)[Fuc(a1-3)]GlcNAc6S
Procedure, shortened: as §1

[15] = biological target: Neu5Ac(a2-3)Gal6S(b1-4)GlcNAc
Procedure, shortened: as §1

[16] = biological target: Neu5Ac(a2-3)Gal6S(b1-4)[Fuc(a1-3)]GlcNAc
Procedure, shortened: as §1

[17] = biological target: Neu5Ac(a2-3)GalNAc
Procedure, shortened: as §1

[18] = biological target: Neu5Ac(a2-3)GalNAc(b1-4)GlcNAc
Procedure, shortened: as §1

[19] = biological target: Neu5Ac(a2-3)[GalNAc(b1-4)]Gal(b1-4)Glc
Procedure, shortened: as §1

[20] = biological target: Neu5Ac(a2-3)[GalNAc(b1-4)]Gal(b1-4)GlcNAc
Procedure, shortened: as §1

[21] = biological target: Neu5Ac(a2-3)[GalNAc(b1-4)]Gal(b1-4)GlcNAc(b1-3)GalNAc
Procedure, shortened: as §1

[22] = biological target: Neu5Ac(a2-3)[Neu5Ac(a2-6)]GalNAc
Procedure, shortened: as §1

[23] = biological target: Neu5Ac(a2-6)Gal
Procedure, shortened: as §1

[24] = biological target: Neu5Ac(a2-6)Gal(b1-3)GlcNAc(b1-3)[Gal(b1-4)GlcNAc(b1-6)]Gal(b1-4)Glc
Procedure, shortened: as §1

[25] = biological target: Neu5Ac(a2-6)Gal(b1-4)Glc
Procedure, shortened: as §1

[26] = biological target: Neu5Ac(a2-6)Gal(b1-4)GlcNAc
Procedure, shortened: as §1

[27] = biological target: Neu5Ac(a2-6)Gal(b1-4)GlcNAc(b1-2)Man
Procedure, shortened: as §1

[28] = biological target: Neu5Ac(a2-6)Gal(b1-4)GlcNAc(b1-2)Man(a1-3)Man(b1-4)GlcNAc(b1-4)GlcNAc
Procedure, shortened: as §1

[29] = biological target: Neu5Ac(a2-6)Gal(b1-4)GlcNAc(b1-2)Man(a1-3)[Gal(b1-4)GlcNAc(b1-2)Man(a1-6)]Man(b1-4)GlcNAc(b1-4)GlcNAc
Procedure, shortened: as §1

[30] = biological target: Neu5Ac(a2-6)Gal(b1-4)GlcNAc(b1-2)Man(a1-3)[GlcNAc(b1-2)Man(a1-6)]Man(b1-4)GlcNAc(b1-4)GlcNAc
Procedure, shortened: as §1

B1: R2-fiber (Pseudomonas aeruginosa), Q9S576 (protein)
chain: HHHHHHKVAKDLVVSLAYQVRTEDGVLVDESPVSAPLDYLHGHGSLISGLETALEGHEVGDKFDVAVGANDAYGQYDENLVQRVPKDVFMGVDELQVGMRFLAETDQGPVPVEITAVEDDHVVVDGNHMLAGQNLKFNVEVVAIREATEEELAHGHVHGAHDHHHDHDHDGCCGGHGHDHGHEHGGEGCCGGKGNGGCGCHENLYFQGVTAGMALAATDIPGLDASKLVSGVLAEQRLPVFARGLATAVSNSSDPNTATVPLMLTNHANGPVAGRYFYIQSMFYPDQNGNASQIATSYNATSEMYVRVSYAANPSIREWLPWQRCDIGGSFTKEADGELPGGVNLDSMVTSGWWSQSFTAQAASGANYPIVRAGLLHVYAASSNFIYQTYQAYDGESFYFRCRHSNTWFPWRRMWHGGDFNPSDYLLKSGFYWNALPGKPATFPPSAHNHDVGQLTSGILPLARGGVGSNTAAGARSTIGAGVPATASLGASGWWRDNDTGLIRQWGQVTCPADADASITFPIPFPTLCLGGYANQTSAFHPGTDASTGFRGATTTTAVIRNGYFAQAVLSWEAFGR
glycan array binding signal (z-score) [1]: -0.426
glycan array binding signal (z-score) [2]: -0.724
glycan array binding signal (z-score) [3]: -0.238
glycan array binding signal (z-score) [4]: -0.216
glycan array binding signal (z-score) [5]: -0.184
glycan array binding signal (z-score) [6]: -0.243
glycan array binding signal (z-score) [7]: -0.811
glycan array binding signal (z-score) [8]: -0.045
glycan array binding signal (z-score) [9]: -0.382
glycan array binding signal (z-score) [10]: 0.84
glycan array binding signal (z-score) [11]: -0.101
glycan array binding signal (z-score) [12]: 0.506
glycan array binding signal (z-score) [13]: 0.198
glycan array binding signal (z-score) [14]: -0.616
glycan array binding signal (z-score) [15]: -0.035
glycan array binding signal (z-score) [16]: 5.49
glycan array binding signal (z-score) [17]: -0.904
glycan array binding signal (z-score) [18]: -0.428
glycan array binding signal (z-score) [19]: 0.331
glycan array binding signal (z-score) [20]: -0.151
glycan array binding signal (z-score) [21]: 1.44
glycan array binding signal (z-score) [22]: -0.101
glycan array binding signal (z-score) [23]: -0.313
glycan array binding signal (z-score) [24]: -0.585
glycan array binding signal (z-score) [25]: -0.256
glycan array binding signal (z-score) [26]: 3
glycan array binding signal (z-score) [27]: -0.232
glycan array binding signal (z-score) [28]: 0.972
glycan array binding signal (z-score) [29]: -0.353
glycan array binding signal (z-score) [30]: 0.025
